This is an account of results in paper PMC9835296.

Sequences of proteins named here, by UniProt entry; tags and fusion partners are left off.
UniProt Q8TED9: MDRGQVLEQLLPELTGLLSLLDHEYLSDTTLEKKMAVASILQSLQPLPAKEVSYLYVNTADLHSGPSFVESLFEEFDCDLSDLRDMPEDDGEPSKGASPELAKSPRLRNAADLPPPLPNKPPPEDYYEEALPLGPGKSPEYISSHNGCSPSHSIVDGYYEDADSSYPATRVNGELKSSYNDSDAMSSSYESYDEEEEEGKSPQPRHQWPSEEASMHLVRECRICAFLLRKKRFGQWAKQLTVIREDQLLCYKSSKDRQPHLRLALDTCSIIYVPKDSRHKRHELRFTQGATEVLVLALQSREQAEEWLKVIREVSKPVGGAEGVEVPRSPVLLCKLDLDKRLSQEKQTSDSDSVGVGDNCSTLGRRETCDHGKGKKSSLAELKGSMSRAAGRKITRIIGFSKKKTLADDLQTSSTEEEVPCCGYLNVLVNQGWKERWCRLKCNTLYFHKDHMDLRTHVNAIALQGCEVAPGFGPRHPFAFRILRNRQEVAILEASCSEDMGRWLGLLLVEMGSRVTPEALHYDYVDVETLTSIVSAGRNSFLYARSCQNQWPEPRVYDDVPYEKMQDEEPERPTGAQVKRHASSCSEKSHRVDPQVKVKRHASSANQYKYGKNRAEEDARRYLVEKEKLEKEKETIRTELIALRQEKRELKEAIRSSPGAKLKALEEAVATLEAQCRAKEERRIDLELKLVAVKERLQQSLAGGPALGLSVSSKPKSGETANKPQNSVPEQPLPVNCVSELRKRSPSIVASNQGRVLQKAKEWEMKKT

For the test, the target named is Actin filament associated protein 1 like 1 (human (endogenous in AGS)) (UniProt Q8TED9). In words: co-IP; AGS cell lysate; 1000 ug protein incubated with 10 ug IP antibody (AFAP1L1 or VAV2) or control IgG at 4 °C overnight; magnetic beads (Pierce Classic Magnetic IP/Co-IP Kit), 1 h at room temperature; eluate analysed by western blot. For orientation: Immunoblotting shows a protein as a band on a membrane.

Results are given in words; binding and its absence hold for the method and conditions named. In cells and extracts the contact can be indirect. Some results given as binding are weak or reduced against the parent protein; the word gives no strength.

B1: VAV guanine nucleotide exchange factor 2 (protein, UniProt P52735 1-878)
chain: MEQWRQCGRWLIDCKVLPPNHRVVWPSAVVFDLAQALRDGVLLCQLLHNLSPGSIDLKDINFRPQMSQFLCLKNIRTFLKVCHDKFGLRNSELFDPFDLFDVRDFGKVISAVSRLSLHSIAQNKGIRPFPSEETTENDDDVYRSLEELADEHDLGEDIYDCVPCEDGGDDIYEDIIKVEVQQPMIRYMQKMGMTEDDKRNCCLLEIQETEAKYYRTLEDIEKNYMSPLRLVLSPADMAAVFINLEDLIKVHHSFLRAIDVSVMVGGSTLAKVFLDFKERLLIYGEYCSHMEHAQNTLNQLLASREDFRQKVEECTLKVQDGKFKLQDLLVVPMQRVLKYHLLLKELLSHSAERPERQQLKEALEAMQDLAMYINEVKRDKETLRKISEFQSSIENLQVKLEEFGRPKIDGELKVRSIVNHTKQDRYLFLFDKVVIVCKRKGYSYELKEIIELLFHKMTDDPMNNKDVKKSHGKMWSYGFYLIHLQGKQGFQFFCKTEDMKRKWMEQFEMAMSNIKPDKANANHHSFQMYTFDKTTNCKACKMFLRGTFYQGYMCTKCGVGAHKECLEVIPPCKFTSPADLDASGAGPGPKMVAMQNYHGNPAPPGKPVLTFQTGDVLELLRGDPESPWWEGRLVQTRKSGYFPSSSVKPCPVDGRPPISRPPSREIDYTAYPWFAGNMERQQTDNLLKSHASGTYLIRERPAEAERFAISIKFNDEVKHIKVVEKDNWIHITEAKKFDSLLELVEYYQCHSLKESFKQLDTTLKYPYKSRERSASRASSRSPASCASYNFSFLSPQGLSFASQGPSAPFWSVFTPRVIGTAVARYNFAARDMRELSLREGDVVRIYSRIGGDQGWWKGETNGRIGWFPSTYVEEEGIQ
Turning to B1, the binding entry was “binds”.
